Reference: PMC4877593, “Design and Synthesis of Potent in Vitro and in Vivo Anticancer Agents Based on 1-(3′,4′,5′-Trimethoxyphenyl)-2-Aryl-1H-Imidazole” (Scientific Reports, 2016)
Values joined by “and” are separate entries in the source; they are usually repeats but may differ in a detail not shown here. Identical values can stand only once.

Tests used:
[1] = tested on: panel of seven human tumor cell lines; assay: Antiproliferative activity across the panel of seven human tumor cell lines; type: cell-based
Experimental: Human T-cell leukemia (CCRF-CEM and Jurkat) and human B-cell leukemia (SEM) cells were grown in RPMI-1640 medium (Gibco, Milano, Italy). Breast adenocarcinoma (MCF7), human cervix carcinoma (HeLa), and human colon adenocarcinoma (HT-29) cells were grown in DMEM medium (Gibco, Milano, Italy), all supplemented with 115 units/mL penicillin G (Gibco, Milano, Italy), 115 μg/mL streptomycin (Invitrogen, Milano, Italy), and 10% fetal bovine serum (Invitrogen, Milano, Italy). Stock solutions (10 mM) of the different compounds were obtained by dissolving them in dimethyl sulfoxide (DMSO). Individual wells of a 96-well tissue culture microtiter plate were inoculated with 100 μL of complete medium containing 8 × 10^3 cells. The plates were incubated at 37 °C in a humidified 5% CO2 incubator for 18 h prior to the experiments. After medium removal, 100 μL of fresh medium containing the test compound at different concentrations was added to each well in triplicate and incubated at 37 °C for 72 h. The percentage of DMSO in the medium never exceeded 0.25%. This was also the maximum DMSO concentration in all cell-based assays described below. […] Different concentrations of the test compounds were added, and viability was determined 72 h later by the MTT test. For cytotoxicity evaluations in resting PBL cultures, non-adherent cells were resuspended (5 × 10^5 cells/mL) and treated for 72 h with the test compounds, as described above.

bovine brain tubulin = assay: Inhibition of tubulin polymerization (turbidimetry); type: biochemical
Experimental: To evaluate the effect of the compounds on tubulin assembly in vitro[22], varying concentrations of compounds were preincubated with 10 μM bovine brain tubulin in glutamate buffer at 30 °C and then cooled to 0 °C. After addition of 0.4 mM GTP (final concentration), the mixtures were transferred to 0 °C cuvettes in a recording spectrophotometer equipped with an electronic temperature controller and warmed to 30 °C. Tubulin assembly was followed turbidimetrically at 350 nm. […] The ability of the test compounds to inhibit colchicine binding to tubulin was measured as described, except that the reaction mixtures contained 1 μM tubulin, 5 μM [^3H]colchicine and 1 or 5 μM test compound.

SMILES: CCOc1ccc(-c2nccn2-c2cc(OC)c(OC)c(OC)c2)cc1F [Compound 4n, 2-(3′-Fluoro-4′-ethoxyphenyl)-1-(3′,4′,5′-trimethoxyphenyl)-1H-imidazole]
- more active than the 2′-naphthyl derivative 3c (antiproliferative) ([1]; from average IC50 values): 2 fold

SMILES: CCOc1ccc(-c2nccn2-c2cc(OC)c(OC)c(OC)c2)cc1Cl [Compound 4o, 2-(3′-Chloro-4′-ethoxyphenyl)-1-(3′,4′,5′-trimethoxyphenyl)-1H-imidazole]
- more potent than CA-4 as inhibitor of tubulin assembly (bovine brain tubulin): 1.5 fold and 1.5-2 fold

SMILES: COc1cc(-n2ccnc2-c2ccc3ccccc3c2)cc(OC)c1OC [Compound 3c, reference compound]
- less active than 4o (antiproliferative) ([1]; from average IC50 values): 12 fold

SMILES: CCOc1ccc(-c2nccn2-c2cc(OC)c(OC)c(OC)c2)cc1 [Compound 4k, 2-(4′-Ethoxyphenyl)-1-(3′,4′,5′-trimethoxyphenyl)-1H-imidazole]
- more active than the 2′-naphthyl derivative 3c (antiproliferative) ([1]; from average IC50 values): 2 fold
- improvement of antiproliferative activity relative to 3b ([1]; seven cell lines): 57-933 fold

SMILES: COc1cc(-n2ccnc2-c2ccc(C)cc2)cc(OC)c1OC [Compound 4a, 1-(3′,4′,5′-Trimethoxyphenyl)-2-p-tolyl-1H-imidazole]
- drop in antiproliferative activity relative to 3b ([1]; six of the seven cancer cell lines (exception HL-60)): 2–12 fold
